Assay: Photosensitivity by FT-IR: acrylate consumption in a thin film after irradiation
Conditions: 2 micron thin film with 2 moles pentaerythritol triacrylate, light of maximum absorption wavelength, 30 mW/cm^2 for 10 min
Method: For the comparison of the photosensitivities of the compounds that comprised oxime ester, in conjunction with Irgacure OXE-02 (Comparative Example 2) of Ciba Specialty Chemical, the photosensitivities of the compounds of Examples were measured by using the FT-IR. After the photoinitiator and 2 moles of pentaerythritol triacrylate were dissolved in 10 g of cyclohexanone, it was spin coated on the glass substrate to form a thin film that had the thickness of 2 microns, and the thin film was heated at 100° C. for 2 min by using the hot plate to remove the solvent. The FT-IR of the thin film was measured, light of the maximum absorption wavelength of each sample was irradiated in the intensity of 30 mW/cm^2 for 10 min, and the consumption amounts of acrylate were compared to each other. The high pressure mercury lamp was used as the light source, and the wavelength was tested by the optical filter (the products that were manufactured by Mellis-Griot, Co., Ltd).

| Compound | Consumption amount of acrylate [mol] |
| --- | --- |
| CCn1c2ccc(C(=O)c3ccccc3C)cc2c2cc(/C(C)=N/OC(C)=O)ccc21 [Comparative Example 1, reference compound] | 5.4 |
| CC(=O)O/N=C(\CC(c1ccc(C(C/C(=N\OC(C)=O)c2ccccc2)N(OC(C)=O)C(C)=O)cc1)N(OC(C)=O)C(C)=O)c1ccccc1 (stereo not drawn) [Example 1] | 5.2 |
| CSc1ccc(C(C/C(=N\OC(C)=O)c2ccc(/C(CC(c3ccc(SC)cc3)N(OC(C)=O)C(C)=O)=N/OC(C)=O)cc2)N(OC(C)=O)C(C)=O)cc1 (stereo not drawn) [Example 2] | 6.2 |
| CCn1c2ccc(/C(CC(c3ccccc3)N(OC(C)=O)C(C)=O)=N/OC(C)=O)cc2c2cc(/C(CC(c3ccccc3)N(OC(C)=O)C(C)=O)=N/OC(C)=O)ccc21 (stereo not drawn) [Example 3] | 6.2 |
| CCn1c2ccc(/C(CC(c3cccs3)N(OC(C)=O)C(C)=O)=N/OC(C)=O)cc2c2cc(/C(CC(c3cccs3)N(OC(C)=O)C(C)=O)=N/OC(C)=O)ccc21 (stereo not drawn) [Example 4] | 5.8 |
| CCn1c2ccc(/C(CC(c3ccc(SC)cc3)N(OC(C)=O)C(C)=O)=N/OC(C)=O)cc2c2cc(/C(CC(c3ccc(SC)cc3)N(OC(C)=O)C(C)=O)=N/OC(C)=O)ccc21 (stereo not drawn) [Example 5] | 5.6 |

— patent US8198462B2, “Dendritic photoactive compound comprising oxime ester and method for preparing the same” (LG Chem, Ltd., priority 2007, dated 2012)
